Among all 350,000 compounds or so, about 220 (0.063%) were called active. The inconclusive results got no clear call from the source; some entries with a clear call stand among them for comparison. The call rests on the fitted dose curve; in most records, active means well fitted activation curve with a large enough effect; inconclusive means small, poorly fitted or top-dose-only effect; inactive means no such curve, though single readings can be large or run the other way. A potency beside an inconclusive call is a rough fit, not a confirmed value.
Experiment: qHTS for Activators of Integrin-Mediated Alleviation for Muscular Dystrophy; further: nearly all actives have a fitted effect of over 60% in size;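 on activation: 100% = response of the positive control SU9516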
Conditions: alpha7betagal myoblasts, beta-gal FDG fluorescence, 48 h; activation: at 38.3 µM (top of the series)
How it was run: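 alpha7betagal+/- myoblasts (passage 13, 250/well) treated 48 h at 37C with compounds at 1:260 dilution of DMSO stock. Lysed, then beta-galactosidase activity read as FDG fluorescence (ex 480/em 540) after 30 min, with pre-read for autofluorescence.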
Potency means the concentration at half of the fitted maximal effect.

Compound	Potency	activation
O=[N+]([O-])c1cccc(Cl)c1N1CCOCC1	inactive	–
Cc1nn(S(=O)(=O)c2ccc(F)cc2)c(C)c1S(=O)(=O)N1CCCCC1	inconclusive: 5.01 µM [activator, single point]	–
CC(C)NC(=O)C1CCCN(S(=O)(=O)c2ccc(-n3cnnn3)cc2)C1 (stereo not given)	inconclusive: 1.12 µM [activator, partial curve, poor fit]	–
C=C1CC(C(=O)N/N=C/c2ccc(O)cc2)C1	inactive	–
CC1Cc2ccccc2N1C(=O)CSc1nncn1C (stereo not given)	inconclusive: 5.01 µM [activator, single point]	–
CCOc1ccc(NC(=O)COc2ccc(S(=O)(=O)N3CCOCC3)cc2)cc1	–	inconclusive: -49.9% [activator]
COc1cc(C(=O)c2cocc2C(=O)c2ccc3c(c2)OCO3)cc(OC)c1OC	inconclusive: 5.62 µM [activator, full curve, poor fit]	–
C[C@H]1CN([C@@H](C)CO)C(=O)Cc2cc(NC(=O)CCC(F)(F)F)ccc2O[C@H]1CN(C)Cc1ccc(C(F)(F)F)cc1	inactive	–
Cc1ccc(C)c2[nH]c(=O)c(CN(Cc3ccco3)C(=O)Nc3ccccc3)cc12	inactive	–
COc1ccc(C2(c3ccc(OC)cc3)NC(=O)N(CC(=O)N(C)c3ccccc3)C2=O)cc1	inconclusive: 3.55 µM [activator, partial curve, poor fit]	–
COCCNc1nc2ccccc2nc1NS(=O)(=O)c1ccc(C)cc1C	inactive	–
Nc1nc(SCC(=O)Nc2ccccc2)[nH]c(=O)c1-c1ccccc1	inconclusive: 28.2 µM [activator, single point]	–
CC1COc2ccccc2N1S(=O)(=O)c1cc(Cl)ccc1Cl (stereo not given)	inconclusive: 5.01 µM [activator, single point]	–
CC(C)(C)c1ccc(-c2cn(-c3ccc(Br)cc3)c3[n+]2CCCS3)cc1	–	inconclusive: -4.42% [activator]
Cc1ccc2nc(NC(=O)COC(=O)c3ccccn3)sc2c1	inconclusive: 7.94 µM [activator, single point]	–
COc1ccc(S(=O)(=O)NCC2CCCO2)cc1Cl (stereo not given)	inactive	–
Cc1ccc(C(=O)Nc2ccc3c(c2)nc(CCNC(=O)c2ccco2)n3C)cc1	inconclusive: 2.82 µM [activator, partial curve, poor fit]	–
COc1cc(-c2cc(C(=O)NCc3ccc(S(N)(=O)=O)cc3)c3ccccc3n2)cc(OC)c1OC	inconclusive: 2.51 µM [activator, partial curve, poor fit]	–
COCCCNC(=O)c1c(N)n(-c2cccc(S(N)(=O)=O)c2)c2nc3ccccc3nc12	inactive	–
CS(=O)(=O)N1CCC(C(=O)NCc2ccccc2)CC1	inconclusive: 15.8 µM [activator, single point]	–
O=C(CC1C(=O)NCCN1C(=O)Nc1ccc(C(F)(F)F)cc1)Nc1ccc(F)cc1 (stereo not given)	inactive	–
O=C1Cc2cccc3cccc1c23	–	inconclusive: -31.8% [activator]
CCOc1cc(/C=N/NC(=O)CSc2nncn2C)ccc1OC(=O)c1ccc(Cl)cc1	inconclusive: 5.01 µM [activator, single point]	–
CCOc1ccc(NC(=S)Nc2ccc3nsnc3c2)cc1	inactive	–

Entries of single compounds, looked up by structure.
`Cc1ccc2nc(NC(=O)COC(=O)c3ccccn3)sc2c1` is entered as Potency: inconclusive: 7.94 µM [activator, single point]
`C[C@H]1CN([C@@H](C)CO)C(=O)Cc2cc(NC(=O)CCC(F)(F)F)ccc2O[C@H]1CN(C)Cc1ccc(C(F)(F)F)cc1` is entered as Potency: inactive

Carrying on:

Compound	Potency	activation
Clc1cccc(Sc2ccc(-c3ccccn3)s2)c1	inconclusive: 2.51 µM [activator, partial curve, poor fit]	–
C[C@@H]1CN([C@H](C)CO)C(=O)CCCn2cc(nn2)CO[C@H]1CN(C)S(=O)(=O)c1cccc(F)c1	inactive	–
O=C(O)c1ccc(N=NN2CCCC2)cc1	inconclusive: 5.01 µM [activator, single point]	–
Nc1cccnc1Oc1ccccc1F	inconclusive: 31.6 µM [activator, partial curve, poor fit]	–
O=C(Nc1nnc(-c2ccc(Cl)cc2)o1)Nc1ccccc1Cl	inactive	–
Cc1cc(C(=O)OCC(=O)Nc2ccc(S(N)(=O)=O)cc2)c2ccccc2n1	–	inconclusive: 14.7% [activator]
CCOc1ccc(C(=O)OCC(=O)Nc2ccc3c(c2)OCCO3)cc1OC	inconclusive: 0.501 µM [activator, partial curve, poor fit]	–
O=C(Cn1ncc2c([nH]c3ccccc32)c1=O)N1CCN(c2ccccc2F)CC1	–	inconclusive: -7.57% [activator]
O=C1CSC(=S)N1/N=C/c1cccc(C(F)(F)F)c1	inactive	–
Cc1ccccc1NC(=S)NNc1ncc(C(F)(F)F)cc1Cl	inactive	–
CN(Cc1cn[nH]c1-c1ccc(-c2ccccc2)cc1)CC1CCOCC1	inconclusive: 0.631 µM [activator, partial curve, poor fit]	–
O=C(O)/C=C/C(=O)Nc1ccc(N2CCOCC2)nc1N1CCOCC1	inconclusive: 28.2 µM [activator, single point]	–
Cc1c(C(=O)O)cccc1-n1c(C)cc(/C=N/Nc2ccc([N+](=O)[O-])cn2)c1C	active: 2.82 µM	–
CCn1cnc2c1c(=O)n(CC(=O)Nc1ccc(C(N)=O)cc1)c(=O)n2Cc1ccccc1	inactive	–
CN(C)C(CNC(=O)c1ccc2nc[nH]c2c1)c1ccccc1 (stereo not given)	inconclusive: 5.01 µM [activator, single point]	–
NC(=O)c1sc2nc3c(c(-c4ccco4)c2c1N)CCCC3	inconclusive: 15.8 µM [activator, partial curve, poor fit]	–
CCN(C(=O)c1ccc(S(=O)(=O)N2CCCC2)cc1)C1CCS(=O)(=O)C1 (stereo not given)	inactive	–
CCC1(c2ccccc2)NC(=O)N(CC(=O)Nc2ccc(S(N)(=O)=O)cc2)C1=O (stereo not given)	inconclusive: 22.4 µM [activator, single point]	–
O=C(N/N=C/c1ccoc1)c1ccc(Br)cc1	inconclusive: 2.82 µM [activator, single point]	–
O=C(N/N=C/c1cccc2ccccc12)c1ccccc1Cl	inconclusive: 25.1 µM [activator, single point]	–
CC(=NNC(=O)c1cccs1)c1ccc2c(c1)OCCO2	inactive	–
O=C(CSc1nc2ccccc2o1)Nc1cc(C(F)(F)F)ccc1N1CCOCC1	inactive	–
CC1(C)C2CC=C(/C=N/n3cnnc3)C1C2 (stereo not given)	inactive	–
COC(=O)c1ccc(NC(=O)c2cc3c(CO)cnc(C)c3oc2=Nc2cccc(C(N)=O)c2)cc1	inconclusive: 31.6 µM [activator, partial curve, poor fit]	–

Compound	Potency	activation
CC(=O)c1ccc(S(=O)(=O)Nc2ccc(-n3c(C)nc4ccccc4c3=O)cc2)cc1	inconclusive: 10 µM [activator, single point]	–
C1=C(c2ccc(-c3ccccc3)cc2)Nc2ncnn2C1c1ccco1 (stereo not given)	inactive	–
CCOc1ccc2c(c1)c(N=NC(=N)N)c(O)n2C	inactive	–
Cc1ccc(NC(=O)N2CCCC(c3ccccc3)C2)cc1 (stereo not given)	inactive	–
CC(=O)Nc1c([N+](=O)[O-])cc(C)c(Cl)c1[N+](=O)[O-]	inconclusive: 3.55 µM [activator, single point]	–
O=C(NC12CC3CC(CC(C3)C1)C2)c1ccc(N2CCNCC2)c([N+](=O)[O-])c1	inconclusive: 10 µM [activator, partial curve, poor fit]	–
O=c1[nH]c(C2CCN(S(=O)(=O)c3ccc4c(c3)OCCO4)CC2)nc2c1nnn2Cc1c(F)cccc1Cl	inconclusive: 10 µM [activator, partial curve]	–
CCOc1ccc(-c2nnc(NC(=O)CCCOc3cccc(C)c3)o2)cc1	inactive	–
COc1ccc(-c2ccc(SCC(=O)Nc3cccc(C(C)=O)c3)nn2)cc1OC	inactive	–
O=C(O)c1cccc(S(=O)(=O)Nc2ccc(O)c(Sc3nc4ccccc4s3)c2)c1	inconclusive: 5.01 µM [activator, single point]	–
O=C(CC12CC3CC(CC(C3)C1)C2)NCc1ccc(F)cc1	inconclusive: 8.91 µM [activator, partial curve, poor fit]	–
Cc1ccc(-c2cc(C(=O)NCc3ccco3)c3ccccc3n2)o1	inactive	–
O=C(C1CCC(=O)N(C2CC2)C1)N1CCC(Oc2cccc(C(F)(F)F)c2)CC1 (stereo not given)	inconclusive: 5.01 µM [activator, single point]	–
CCOc1ccccc1-n1c(=S)sc2c(=O)n(-c3ccc(C)cc3)c(=S)[nH]c21	inconclusive: 3.16 µM [activator, single point]	–
Cc1cc(NC(=O)CO/N=C/c2ccc3c(c2)OCO3)ccc1Br	inconclusive: 5.01 µM [activator, single point]	–
CCOC(=O)C1CCCN(C(=S)NC2CCCC2)C1 (stereo not given)	inconclusive: 5.01 µM [activator, single point]	–
C=CCN1C(=O)S/C(=C/c2ccc(Sc3nc4ccccc4[nH]3)o2)C1=O	inactive	–
CC(=O)c1ccc(S(=O)(=O)NCCC(=O)OCC(=O)NCCc2ccccc2)cc1	inconclusive: 5.01 µM [activator, single point]	–
O=C(Nc1ccc([N+](=O)[O-])cc1)N1CCCCC1	inconclusive: 3.98 µM [activator, single point]	–
COc1cc(OC)cc(C(=O)NCC2CCCN(C(=O)c3csc(C)n3)C2)c1 (stereo not given)	inconclusive: 3.16 µM [activator, single point]	–
C/C(=N\NS(=O)(=O)c1ccc([N+](=O)[O-])cc1)c1ccc(NC(=O)c2ccco2)cc1	inconclusive: 1.58 µM [activator, full curve, poor fit]	–
COC(=O)c1cc(NC(=O)c2cccs2)ccc1N1CCOCC1	inconclusive: 3.16 µM [activator, single point]	–

From PubChem BioAssay AID624291 (National Center for Advancing Translational Sciences (NCATS), 2012)
